No constants are given. Whether binding was seen depends on the method and setting. Binding seen in cells or lysates may run through a third protein. Binding can be weak; no strength is given.
Biological target: Cap-H2-EGFP (Drosophila) (UniProt Q9VGX5)
Test: co-IP; GFP-binding protein on Protein A-coupled Sepharose; lysates of transfected S2 cells (induced with 1-2 mM CuSO4, 24 hr) in CLB (100 mM Tris pH 7.2, 125 mM NaCl, 1 mM DTT, 0.1% Triton X-100, 0.1 mM PMSF), 40 min at 4°; immunoblots with anti-GFP and anti-Mrg15

Sequences of proteins named here, by UniProt entry; tags and fusion partners are left off. A change or cut given only in a name is not applied to a line headed by its entry.
UniProt Q9VGX5: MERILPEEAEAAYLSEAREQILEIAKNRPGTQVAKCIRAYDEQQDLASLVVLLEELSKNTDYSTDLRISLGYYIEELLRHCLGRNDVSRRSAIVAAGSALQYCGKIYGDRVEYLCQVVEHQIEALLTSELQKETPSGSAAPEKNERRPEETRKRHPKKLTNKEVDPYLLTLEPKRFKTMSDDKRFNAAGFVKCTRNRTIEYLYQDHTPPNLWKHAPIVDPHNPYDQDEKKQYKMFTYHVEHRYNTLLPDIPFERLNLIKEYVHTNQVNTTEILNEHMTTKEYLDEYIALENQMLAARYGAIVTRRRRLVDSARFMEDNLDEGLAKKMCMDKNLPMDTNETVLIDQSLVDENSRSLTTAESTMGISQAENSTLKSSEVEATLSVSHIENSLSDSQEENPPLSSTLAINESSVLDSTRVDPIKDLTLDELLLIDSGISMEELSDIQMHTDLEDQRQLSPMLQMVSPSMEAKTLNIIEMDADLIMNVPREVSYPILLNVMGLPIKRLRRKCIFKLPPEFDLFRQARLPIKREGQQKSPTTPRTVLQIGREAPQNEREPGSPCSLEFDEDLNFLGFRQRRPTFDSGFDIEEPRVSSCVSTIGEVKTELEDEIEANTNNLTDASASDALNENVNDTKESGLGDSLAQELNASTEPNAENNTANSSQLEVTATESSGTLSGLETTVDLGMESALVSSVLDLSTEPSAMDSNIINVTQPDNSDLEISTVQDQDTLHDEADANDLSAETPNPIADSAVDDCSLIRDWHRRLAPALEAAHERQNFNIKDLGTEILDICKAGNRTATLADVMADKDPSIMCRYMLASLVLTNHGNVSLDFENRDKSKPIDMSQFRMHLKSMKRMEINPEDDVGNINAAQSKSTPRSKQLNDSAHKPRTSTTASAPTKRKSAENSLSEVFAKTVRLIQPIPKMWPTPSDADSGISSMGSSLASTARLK

binding: binds
B1: Mrg15 (protein, UniProt Q9Y0I1 1-424)
chain: MGEVKPAKVENYSTGTDANTLFVDGERVLCFHGPLIYEAKVLKTKPDATPVEYYIHYAGWSKNWDEWVPENRVLKYNDDNVKRRQELARQCGERSKKDNKKGSAKAKKMEQMRNESRASTPSKDSNTSQSTASSTPTTSAGPGSKSEAGSTGTTTTNSTANSTTSRAHRKSTQSTPSTARPGTPSDKKEDPAAAETTEEEGPVAPKKKRMSEQRPSLTGSDVAEKPLPPTTTPSTPTTEPAPCVESEEAYAAKVEVKIKIPDELKHYLTDDWYAVVREHKLLELPAKVTVQQISEQYLAHKKSVKSTSASKEVAINDVLDGIVEYFNVMLGSQLLYKFERTQYADVMQKHPDTPLSELYGSFHLLRLFVRLGSMLSYSALDQQSMQNLLTHVQDFLKFLVKNSSIFFSMSNFINVDPEYVRNAQ
